In PubChem BioAssay AID743255 (National Center for Advancing Translational Sciences (NCATS), 2014):
In all, about 390,000 compounds went through this assay and about 910 (0.23%) were called active. Inconclusive means that the source gave no clear call. Such entries were picked first, then a sample of the others. The call rests on the fitted dose curve; in most records, active means well fitted inhibition curve with a large enough effect; inconclusive means small, poorly fitted or top-dose-only effect; inactive means no such curve, though single readings can be large or run the other way. Potencies of inconclusive entries are doubtful fits and often do not repeat.

By UniProt entry, the sequences of proteins in these tests, tags left out. Where a name states a change or a piece, a line headed by the entry shows the natural chain unless it says otherwise.
UniProt O94782: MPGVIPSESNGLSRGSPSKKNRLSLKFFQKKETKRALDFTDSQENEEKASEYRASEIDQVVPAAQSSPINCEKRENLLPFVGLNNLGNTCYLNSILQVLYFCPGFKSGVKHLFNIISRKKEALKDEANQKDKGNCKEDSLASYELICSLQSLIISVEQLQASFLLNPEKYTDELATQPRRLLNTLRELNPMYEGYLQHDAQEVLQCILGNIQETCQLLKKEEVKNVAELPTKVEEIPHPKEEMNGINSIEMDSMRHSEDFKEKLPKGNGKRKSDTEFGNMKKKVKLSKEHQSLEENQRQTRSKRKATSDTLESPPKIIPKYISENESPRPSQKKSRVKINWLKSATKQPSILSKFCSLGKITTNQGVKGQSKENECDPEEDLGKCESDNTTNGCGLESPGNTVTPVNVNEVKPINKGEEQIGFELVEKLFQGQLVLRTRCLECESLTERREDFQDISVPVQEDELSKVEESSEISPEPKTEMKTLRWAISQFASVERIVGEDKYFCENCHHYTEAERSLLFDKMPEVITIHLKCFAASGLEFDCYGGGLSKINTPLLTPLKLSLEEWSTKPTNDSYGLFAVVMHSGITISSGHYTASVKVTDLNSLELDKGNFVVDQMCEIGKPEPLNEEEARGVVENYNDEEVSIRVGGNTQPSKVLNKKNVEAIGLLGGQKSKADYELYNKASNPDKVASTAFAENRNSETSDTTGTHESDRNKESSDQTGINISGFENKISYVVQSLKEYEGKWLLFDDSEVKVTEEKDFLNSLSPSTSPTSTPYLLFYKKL

Target: Ubiquitin carboxyl-terminal hydrolase 1 (Homo sapiens) (UniProt O94782)
Assay: Inhibitors of USP1/UAF1: Primary Screen; further: nearly all actives have a fitted effect of over 60% in size
Conditions: recombinant USP1/UAF1, Ub-Rhodamine cleavage fluorescence; activity change, negative = inhibition: at 57.1 µM (top of the series)
Outline: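 High-throughput fluorogenic screen: 1nM USP1/UAF1 complex, Ub-Rho substrate 150nM final, 50mM HEPES pH 7.8 with 0.5mM EDTA, 0.1 mg/ml BSA, 1mM TCEP and 0.01% Tween-20.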
On the % scale 0 is the no-effect control and ±100 the full control effect; potency means the concentration at half of the fitted maximal effect.

SMILES	activity change, negative = inhibition	Potency
N#Cc1ccc(Oc2c(Cl)cncc2Cl)cc1	inactive: -20.7%	–
COc1ccc(CCC(C)NCc2ccccc2OC)cc1 (stereo not drawn)	inactive: -7.71%	–
CCCN(CCC)C(=O)Cn1c(=O)n(CCCCCC(=O)NCc2ccccc2Cl)c(=O)c2sccc21	–	inconclusive: 0.562 µM [inhibitor, full curve, poor fit]
COc1ccc(CCNC(=O)CC2Nc3cc(C)c(C)cc3NC2=O)cc1OC (stereo not drawn)	–	inconclusive: 31.6 µM [inhibitor, partial curve]
CC(=O)C1=C(c2ccccc2)N(C(C)=O)n2c(C)nnc2S1	–	inconclusive: 31.6 µM [inhibitor, partial curve]
COc1ccc(OC)c(C(=O)NC(CC(N)=O)c2ccc(NCc3ccccn3)c([N+](=O)[O-])c2)c1 (stereo not drawn)	–	inconclusive: 0.282 µM [inhibitor, full curve]
C#CCCOC(=O)N1C2=NC(C(=O)OC)=C(C(=O)OC)[C@@H]3N(C)c4ccccc4[C@]23C[C@H]1CO	–	inconclusive: 0.251 µM [inhibitor, full curve, poor fit]
CCOC(=O)/C(=C/C=C1\Sc2cc(C)c(C)cc2N1CC)C(C)=O	–	active: 25.1 µM
O=C1NC(=S)S/C1=C\c1coc2ccccc2c1=O	–	inconclusive: 44.7 µM [inhibitor, partial curve]
Cc1ccc(CCNC(=O)c2ccc3c(c2)nc2n3CCOC2)cc1	–	inconclusive: 0.0447 µM [inhibitor, full curve, poor fit]
CCOCCCn1c(SCC(=O)Nc2ccccc2Cl)nc2c(oc3ccccc32)c1=O	inactive: -22.9%	–
CCCCC1=CC2=CC(=O)C(C)(OC(=O)CC)C(=O)C2=CN1CCN1CCOCC1 (stereo not drawn)	–	inconclusive: 35.5 µM [inhibitor, partial curve]
CCOC(=O)c1sc2ncnc(N3CCN(CC)CC3)c2c1C	–	inconclusive: 8.91 µM [inhibitor, full curve, poor fit]
Nc1nc2ccccc2[nH]1	–	inconclusive: 0.178 µM [inhibitor, full curve, poor fit]
CC(C)(C)OC(=O)CC[C@@H](C(=O)N1CCN(C(=O)OC(C)(C)C)CC1)n1cc(C(CO)NC(=O)OC(C)(C)C)nn1 (stereo partly drawn)	–	inconclusive: 1.41 µM [inhibitor, full curve, poor fit]
Cc1ccc(NC(=O)C2C3C=CC4(O3)C2C(=O)N(CCCN2CCCC2)C4C(=O)NC2CCCCC2)cc1Cl (stereo not drawn)	–	inconclusive: 1.12 µM [inhibitor, full curve, poor fit]
COc1cc2c(cc1OC)n(CC(=O)NC1CCCCCC1)n1c(C)cc(=O)nc21	inactive: -9.25%	–
COc1ccccc1C(=O)Nc1nnc2n1CCS2	–	inconclusive: 0.282 µM [inhibitor, full curve, poor fit]
S=C1NC2=C(CCCC2=C2SCCCS2)C(c2ccccc2)N1 (stereo not drawn)	inactive: -15.2%	–
Cc1ccc2oc(C(=O)N(Cc3sccc3C)C3CCS(=O)(=O)C3)c(C)c2c1 (stereo not drawn)	–	inconclusive: 0.631 µM [inhibitor, full curve, poor fit]
Brc1ccc(-c2ccc(/C=N/Nc3nncc(-c4ccccc4)n3)o2)cc1	inactive: -13.4%	–

SMILES	activity change, negative = inhibition	Potency
COc1ccc(C(=O)N/N=C/c2sc(=O)n(Cc3cccc(C(=O)O)c3)c2Cl)cc1	inactive: -3.77%	–
CCCCN(C)C(=O)CSc1nc2ccccc2nc1Cc1ccc(C)cc1	–	inconclusive: 56.2 µM [inhibitor, partial curve, poor fit]
Cc1cc(NCc2ccco2)nc2cc(O)ccc12	inactive: -27%	–
CCOc1ccc(NC(=O)c2cc(S(=O)(=O)N3CCN(c4ccccc4F)CC3)ccc2F)cc1	–	inconclusive: 8.91 µM [inhibitor, partial curve, poor fit]
Cc1ccc(-c2noc(CSc3nnc(C)n3-c3ccc(C)c(C)c3)n2)cc1	–	inconclusive: 44.7 µM [inhibitor, partial curve]
CN1C(=O)c2cccc(NCCCN3C(=O)c4ccccc4C3=O)c2C1=O	–	inconclusive: 28.2 µM [inhibitor, partial curve]
Cc1ccc(C(=O)CNc2cccc([N+](=O)[O-])c2)cc1	inactive: -0.893%	–
Cc1cc(NS(=O)(=O)c2ccc(NC(=O)CCCOc3cccc(C)c3C)cc2)no1	inactive: -5.16%	–
O=C1C(=O)N(C2CCN(C(=O)c3ccccc3F)CC2)CCN1Cc1ccc(F)cc1	–	inconclusive: 7.94 µM [inhibitor, full curve, poor fit]
CCOC(=O)c1sc(N)c(C#N)c1COC(=O)CNC(=O)c1cc(OC)c(OC)c(OC)c1	–	inconclusive: 31.6 µM [inhibitor, single point]
CCN(CC)C(=O)c1ccc(/C=C/c2c[nH]c3ccccc23)[n+](C)c1	–	inconclusive: 31.6 µM [inhibitor, partial curve]
CN(C)c1ccc(CNC(=O)C2CCN(Cc3cc4ccccc4n3Cc3ccccc3)CC2)cc1	–	inconclusive: 10 µM [inhibitor, partial curve]
CCOC(=O)C1C(=O)NC(SCC(=O)Nc2nccs2)=C(C#N)C1c1ccccc1OCC (stereo not drawn)	–	inconclusive: 39.8 µM [inhibitor, partial curve, poor fit]
CCn1c(C(=O)OC)cc2c1ccn2-c1ccc(F)cc1	–	inconclusive: 28.2 µM [inhibitor, partial curve]
CCCCC(=O)Nc1nnc(S(=O)(=O)N(C)Cc2ccccc2)s1	–	inconclusive: 44.7 µM [inhibitor, partial curve, poor fit]
CCCN1CCN(C(=O)CCCNC(=O)c2ccc(Cl)cc2)CC1	–	inconclusive: 56.2 µM [inhibitor, partial curve, poor fit]
COc1ccccc1CN1CCNC(=O)C1CC(=O)NCc1c(C)n[nH]c1C (stereo not drawn)	–	inconclusive: 50.1 µM [inhibitor, partial curve, poor fit]
CCc1ccc(NC(=O)C2=CC(c3cccs3)=NS(=O)(=O)N2C)cc1	–	inconclusive: 44.7 µM [inhibitor, single point]
CCOc1ccc(-n2c(O)c(/C=N/NC(=O)C3COc4ccccc4O3)c3ccccc3c2=O)cc1 (stereo not drawn)	–	inconclusive: 56.2 µM [inhibitor, partial curve, poor fit]
CC(=O)Nc1ccc(NC(=O)COC(=O)c2ccc([N+](=O)[O-])o2)cc1	–	inconclusive: 50.1 µM [inhibitor, partial curve, poor fit]
CC(C)CN(CC(C)C)CC(O)Cn1cc(/C=C/C(=O)c2ccccc2)c2ccccc21 (stereo not drawn)	–	inconclusive: 39.8 µM [inhibitor, partial curve]

An excerpt from above in order of heavy-atom count, smallest number first:
SMILES	activity change, negative = inhibition	Potency
COc1ccccc1C(=O)Nc1nnc2n1CCS2	–	inconclusive: 0.282 µM [inhibitor, full curve, poor fit]
Cc1ccc(C(=O)CNc2cccc([N+](=O)[O-])c2)cc1	inactive: -0.893%	–
CC(=O)C1=C(c2ccccc2)N(C(C)=O)n2c(C)nnc2S1	–	inconclusive: 31.6 µM [inhibitor, partial curve]
S=C1NC2=C(CCCC2=C2SCCCS2)C(c2ccccc2)N1 (stereo not drawn)	inactive: -15.2%	–
CC(=O)Nc1ccc(NC(=O)COC(=O)c2ccc([N+](=O)[O-])o2)cc1	–	inconclusive: 50.1 µM [inhibitor, partial curve, poor fit]
Brc1ccc(-c2ccc(/C=N/Nc3nncc(-c4ccccc4)n3)o2)cc1	inactive: -13.4%	–
COc1ccccc1CN1CCNC(=O)C1CC(=O)NCc1c(C)n[nH]c1C (stereo not drawn)	–	inconclusive: 50.1 µM [inhibitor, partial curve, poor fit]
COc1ccc(CCNC(=O)CC2Nc3cc(C)c(C)cc3NC2=O)cc1OC (stereo not drawn)	–	inconclusive: 31.6 µM [inhibitor, partial curve]
COc1ccc(C(=O)N/N=C/c2sc(=O)n(Cc3cccc(C(=O)O)c3)c2Cl)cc1	inactive: -3.77%	–
CCOC(=O)C1C(=O)NC(SCC(=O)Nc2nccs2)=C(C#N)C1c1ccccc1OCC (stereo not drawn)	–	inconclusive: 39.8 µM [inhibitor, partial curve, poor fit]
C#CCCOC(=O)N1C2=NC(C(=O)OC)=C(C(=O)OC)[C@@H]3N(C)c4ccccc4[C@]23C[C@H]1CO	–	inconclusive: 0.251 µM [inhibitor, full curve, poor fit]
CCOc1ccc(NC(=O)c2cc(S(=O)(=O)N3CCN(c4ccccc4F)CC3)ccc2F)cc1	–	inconclusive: 8.91 µM [inhibitor, partial curve, poor fit]
CCOc1ccc(-n2c(O)c(/C=N/NC(=O)C3COc4ccccc4O3)c3ccccc3c2=O)cc1 (stereo not drawn)	–	inconclusive: 56.2 µM [inhibitor, partial curve, poor fit]
CCCN(CCC)C(=O)Cn1c(=O)n(CCCCCC(=O)NCc2ccccc2Cl)c(=O)c2sccc21	–	inconclusive: 0.562 µM [inhibitor, full curve, poor fit]

Later entries

SMILES	activity change, negative = inhibition	Potency
Cn1c(-c2ccsc2)c(-c2cccs2)c2cc(Br)ccc21	–	inconclusive: 44.7 µM [inhibitor, partial curve, poor fit]
CCOc1ccccc1NC(=O)C1CCCN1S(=O)(=O)c1ccc2nc(-c3ccccc3)[nH]c2c1 (stereo not drawn)	inactive: -0.243%	–
COc1ccc(CCNC(=O)Cn2cc(S(=O)(=O)Cc3ccc(F)cc3)c3ccccc32)cc1OC	inactive: -9.3%	–
C/C(=N\NC(=S)NCCc1ccccc1)c1cccc(Br)c1	–	inconclusive: 28.2 µM [inhibitor, partial curve]
CCOc1cc(C)c(C(C)C)cc1S(=O)(=O)n1cnc(C)c1	–	inconclusive: 0.1 µM [inhibitor, full curve, poor fit]
Cc1ccc(N2C(=O)N3[C@H](c4ccc(F)cc4)[C@@H]4C(=O)N(C5CCCCC5)C(=O)[C@@H]4[C@]3(C)C2=O)cc1	–	inconclusive: 0.282 µM [inhibitor, full curve, poor fit]
COc1ccc(C2CC(c3ccccc3)=NN2c2ccc(/C=N/NC(=O)c3ccncc3)cc2)cc1 (stereo not drawn)	–	inconclusive: 35.5 µM [inhibitor, partial curve, poor fit]
Cc1c(C(=O)OCc2ccccc2)[nH]c2c1C(=O)CC(c1ccc(Cl)cc1)C2 (stereo not drawn)	–	inconclusive: 7.08 µM [inhibitor, single point]
O=C(NCc1ccc(Cl)cc1)NC1COc2ccccc2C1 (stereo not drawn)	–	inconclusive: 50.1 µM [inhibitor, partial curve, poor fit]
CCCCn1nc2cc(C(=O)NC3CCc4ccccc43)ccc2c1OCC (stereo not drawn)	–	inconclusive: 0.708 µM [inhibitor, full curve]
CCOC(=O)/C(C#N)=C/c1cn(CCC(=O)O)nc1-c1ccc(Cl)cc1	inactive: -21.1%	–
O=C(Cc1ccccc1F)Nc1nc2ccccc2[nH]1	–	inconclusive: 2.82 µM [inhibitor, full curve, poor fit]
COc1ccc(-c2ccc3[nH]c4c(c3c2)CCN2C(=O)[C@@H]([C@H](C)O)[C@@H](N(C)C(=O)Nc3ccc(F)cc3)C[C@@H]42)cc1	inactive: -16.1%	–
CS(=O)(=O)Nc1cccc(C(=O)CC2(O)C(=O)Nc3ccc(Br)cc32)c1 (stereo not drawn)	inactive: 4.94%	–
CN(C)C=Nc1c(Br)cc(Br)c2nonc12	–	inconclusive: 28.2 µM [inhibitor, partial curve]
Cc1ccc(CSc2nnc(-c3cnccn3)n2C)cc1	–	inconclusive: 3.98 µM [inhibitor, partial curve]
Cc1ccc(C)c(Sc2ccc(NC(=O)CCl)cc2)c1	–	inconclusive: 44.7 µM [inhibitor, partial curve]
O=C1C(Nc2ccccc2)=C/C(=N/S(=O)(=O)c2cccs2)c2ccccc21	–	active: 2.51 µM
COc1ccc(Cl)cc1-c1n[nH]c(=S)n1C1CCCCC1	inactive: -7.98%	–
CCOC(=O)Cc1csc(NC(=O)CCc2ccc(S(=O)(=O)N3CCOCC3)cc2)n1	–	inconclusive: 5.01 µM [inhibitor, partial curve]
CCOC(=O)C1CCN(S(=O)(=O)c2ccc3c4c(cccc24)C(=O)N3)CC1	–	inconclusive: 0.708 µM [inhibitor, full curve, poor fit]
